In patent publication US20250025383A1, “EMOLLIENT COMPOSITION IN EMULSION FORM” (PIERRE FABRE MEDICAMENT, priority 2018, published 2025):
At least one compound was matched to its structure with a doubt left. Some compounds share one wording; it may come from a single statement.

Tested on: Pseudomonas aeruginosa (PA), Staphylococcus aureus (SA), Escherichia coli (EC), Candida albicans (CA), Aspergillus brasiliensis (AB)
Test: Microbiological test (preservative efficacy, European Pharmacopoeia 8th Edition § 5.1.3 criteria A and B)
Assay type: cell-based

N=C(NCCCCCCNC(=N)NC(=N)Nc1ccc(Cl)cc1)NC(=N)Nc1ccc(Cl)cc1.O=C(O)[C@H](O)[C@@H](O)[C@H](O)[C@H](O)CO.O=C(O)[C@H](O)[C@@H](O)[C@H](O)[C@H](O)CO [CHX digluconate]
Results of microbiological tests (compliance with criteria) (preservative alone at 0.1% in glycerol/Vaseline/liquid paraffin emulsion): neither A nor B

CCCCCCCC(=O)OCC(COC(=O)CCCCCCC)OC(=O)CCCCCCC [Tryicaprylin (Miglyol 808), Tryicaprylin]
Results of microbiological tests (compliance with criteria) (preservative alone at 5% in emulsion): neither A nor B

CCC(=O)[O-].[Na+] [Sodium proprionate]
Results of microbiological tests (compliance with criteria) (preservative alone at 0.3% in emulsion): neither A nor B
